Assay results as given in patent US6476034B2, “Antiviral azaindole derivatives” (priority 2000, dated 2002).
Some entries share one result that the patent states for a list of compounds.

Each compound was assayed on single-round infectious HIV-1 reporter virus. Settings: HeLa CD4 CCR5 cells, XLfit four parameter logistic model from % inhibition at 10 concentrations; compounds grouped by EC50; some of the first column were tested at a concentration lower than their EC50.
Assay type: cell-based

Compound	EC50 [nM]
(R)-N-(3,5-dibromobenzyl)-3-methyl-N′-[(4-methoxy-7-azaindol-3-yl)-oxoacetyl]-piperazine [Compound 5af]	> 5000
(R)-N-[4-(3-(trifluoromethyl)-3H-diazirin-3-yl)benzyl]-3-methyl-N′-[(4-methoxy-7-azaindol-3-yl)-oxoacetyl]-piperazine [Compound 5ag]	> 5000
C[C@@H]1CN(C(=O)c2ccccc2)CCN1C(=O)C(=O)c1c[nH]c2c1c([N+](=O)[O-])cc[n+]2[O-] [Compound 15a, (R)-N-(benzoyl)-3-methyl-N′-[(4-nitro-7-oxide-7-azaindol-3-yl)-oxoacetyl]-piperazine]	< 1000
COc1cc[n+]([O-])c2[nH]cc(C(=O)C(=O)N3CCN(C(=O)c4ccccc4)C[C@H]3C)c12 [Compound 16a, (R)-N-(benzoyl)-3-methyl-N′-[(4-methoxy-7-oxide-7-azaindol-3-yl)-oxoacetyl]-piperazine]	< 1000
CCOc1cc[n+]([O-])c2[nH]cc(C(=O)C(=O)N3CCN(C(=O)c4ccccc4)C[C@H]3C)c12 [Compound 16d, (R)-N-(benzoyl)-3-methyl-N′-[(4-ethoxy-7-oxide-7-azaindol-3-yl)-oxoacetyl]-piperazine]	< 1000
(R)-N-(benzoyl)-3-methyl-N′-[(4 or 6)-methyl-7-azaindol-3-yl)-oxoacetyl]-piperazine [Compound 11a]	< 1000
O=C(C(=O)N1CCN(C(=O)c2ccccc2)CC1)c1c[nH]c2c1ccc[n+]2[O-] [Compound 8e, N-(benzoyl)-N′-[(7-oxide-7-azaindol-3-yl)-oxoacetyl]-piperazine]	> 5000
(R)-N-(benzoyl)-3-methyl-N′-[(4 or 6)-vinyl-7-azaindol-3-yl)-oxoacetyl]-piperazine [Compound 11c]	> 5000
